From paper PMC7819943, “Rice protein-binding microarrays: a tool to detect cis-acting elements near promoter regions in rice”
The other results are listed elsewhere or left out.

Sequences of proteins named here, by UniProt entry; tags and fusion partners are left off.
UniProt Q0JBA9, entry or part of it: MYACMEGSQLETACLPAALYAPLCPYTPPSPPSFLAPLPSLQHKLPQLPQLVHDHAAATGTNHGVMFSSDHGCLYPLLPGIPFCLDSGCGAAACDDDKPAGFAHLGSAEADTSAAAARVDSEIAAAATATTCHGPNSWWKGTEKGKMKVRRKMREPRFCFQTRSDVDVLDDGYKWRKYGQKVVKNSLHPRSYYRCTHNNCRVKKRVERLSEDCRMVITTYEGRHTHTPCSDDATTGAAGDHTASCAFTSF

Biological target: OsWRKY34 (Oryza sativa, UniProt Q0JBA9 1-250)
Experiment: protein-binding microarray (RPBM); PBS, 2% BSA, 51.3 ng/ul salmon testes DNA, 50 uM zinc acetate, 200 nM TF, 25 C, 1 h; high values mean tight binding
Details: protein: recombinant; tags: N-terminal polyhistidine and DsRed monomer fusion (pET32a); label: CyDye5-dUTP incorporated in the synthesized complementary strand; 3' TTTTT single-stranded linker to array surface; dsDNA, one strand shown
In short: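 Polyhistidine-tagged DsRed fusions of transcription factors, joined at the N-terminus, were expressed in E. coli BL21-CodonPlus and isolated on Ni–NTA. They were incubated at 200 nM for 1 h at 25 °C on a custom Agilent array, double-stranded and BSA-blocked, in PBS with 2% BSA, salmon testes DNA and 50 µM zinc acetate. The binding signal is per-feature fluorescence intensity (arbitrary units) read on an Axon 4000B scanner after washing.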

Sequence | binding signal
ATAGTTGGTTTCCCGTTCTTTCCACTCCCGTCATGGACTACGGAGTCACCTAGTGCAG | 9520 ± 525 fluorescence intensity (a.u.)
CGCGACTGCTCCCGGCCTCATCCTCAATTTCACCTCGTGTCGGAGTCACCTAGTGCAG | 10200 fluorescence intensity (a.u.)
TCTAAATATAGTTCTGCACGTACGTATCGATCGATTGTTCCGGAGTCACCTAGTGCAG | 11400 fluorescence intensity (a.u.)
TTTGCGTAATGCCTTGAGTTCATCTCACTTTCGATCTTTGCGGAGTCACCTAGTGCAG | 8990 fluorescence intensity (a.u.)
TGGCGAGCCCAGATCTGGCCCTGTTTTTTTTTTCTTTTTTCGGAGTCACCTAGTGCAG | 9160 fluorescence intensity (a.u.)
GCCCCTCGTTTTGCGTTTTCTCTTTCTTTCTTTCGTTTTTCGGAGTCACCTAGTGCAG | 11900 fluorescence intensity (a.u.)
GTCCACCTCGCGCCTCTCCAACGCCGCCGCCGCCGCCACCCGGAGTCACCTAGTGCAG | 8770 fluorescence intensity (a.u.)
CAGTTTGACTGTTGACCCGTAGTTTTGTCACATGATGGATCGGAGTCACCTAGTGCAG | 12600 fluorescence intensity (a.u.)
ACTAAGGCGCTATTCTCGCAAGTTTTTTGCACCACACGCTCGGAGTCACCTAGTGCAG | 8800 fluorescence intensity (a.u.)
AACCATGAGCTTCTCCCGTCCCTACAAGACACATCATCCACGGAGTCACCTAGTGCAG | 8080 fluorescence intensity (a.u.)
CCCCTTTCGCACTCGCACTCGCACTCGCACTACACCCACCCGGAGTCACCTAGTGCAG | 8370 fluorescence intensity (a.u.)
ACGTCATCGATCCGCGGCACCCCGCCTCCCACCAATCGCGCGGAGTCACCTAGTGCAG | 8830 fluorescence intensity (a.u.)
GTAAGACCTCACATAACACATGATTTTTCACAACCAATTTCGGAGTCACCTAGTGCAG | 8620 fluorescence intensity (a.u.)
ATCTTTTTTATTTTAACATATTTTCGGTTAAAAACTATTTCGGAGTCACCTAGTGCAG | 8040 fluorescence intensity (a.u.)
CGCATCTGACGGTTCGGCTGTTCGATTGGTTGGTTTTGAACGGAGTCACCTAGTGCAG | 8870 fluorescence intensity (a.u.)
TTTAGGTGTCACATTGAACGTTTGACCAGATATCGGAAGGCGGAGTCACCTAGTGCAG | 10500 fluorescence intensity (a.u.)
GATCGAATCGAATAGAGTACATTCTCTACAGGGGAGGGGACGGAGTCACCTAGTGCAG | 9760 fluorescence intensity (a.u.)
TTCTTAATTTCTTCTTTCAGGTCATGTGCATCCATATTGTCGGAGTCACCTAGTGCAG | 9680 fluorescence intensity (a.u.)
ATGGGTTGGTAGAGGGGAGGGAACGCGCGACGGTGGCGAGCGGAGTCACCTAGTGCAG | 8740 fluorescence intensity (a.u.)
CGCCGCCTCCGCCTCGCACAGCCGCCATCCCCGCCTCCGCCGGAGTCACCTAGTGCAG | 9500 fluorescence intensity (a.u.)
GCACTTCCAATTTTATTTCAAATGGTGCAAGTCACAATGTCGGAGTCACCTAGTGCAG | 9180 fluorescence intensity (a.u.)

Sequence | binding signal
CTCCTCTAACTAACATAACTTCCCACTGACGTGGTCATTTCGGAGTCACCTAGTGCAG | 9310 fluorescence intensity (a.u.)
GCAGCTTTCCACTATACTACCACCACCACTGAGCTGCCACCGGAGTCACCTAGTGCAG | 8490 fluorescence intensity (a.u.)
CTGCGGCGGTCGACGACACGTTGGTTGGCCGGAGCTGGAACGGAGTCACCTAGTGCAG | 10700 fluorescence intensity (a.u.)
GACATGTGGCTTAATTTCCGCGTTTCTTGAATCGGTTTCTCGGAGTCACCTAGTGCAG | 12300 fluorescence intensity (a.u.)
TCCACGGTTGTTGCGAGCTGCCTTTGTGCCTACCCAAAAACGGAGTCACCTAGTGCAG | 8360 fluorescence intensity (a.u.)
GAGGCGTGCGGGATGGTGTGGGTTAATCTGGGATAAGGATCGGAGTCACCTAGTGCAG | 8230 fluorescence intensity (a.u.)
CACCTTTTCTTGGCATCGCACCACGCACACAACCAAAACCCGGAGTCACCTAGTGCAG | 9470 fluorescence intensity (a.u.)
TGATGGGCGATCGATCGCTATGGGGATGGGGTAGCGATCGCGGAGTCACCTAGTGCAG | 8110 fluorescence intensity (a.u.)
CCCTTCGTTTCACAATGTAAGTCATTCTAGCATTTCTCACCGGAGTCACCTAGTGCAG | 8600 fluorescence intensity (a.u.)
TAATTTTTATAGGCCTGTTCATATTTTCTACCGTTGATTTCGGAGTCACCTAGTGCAG | 10300 fluorescence intensity (a.u.)
GTCACGCCGAGCTACTTACCTCCGCGAGCGGCCACAACTCCGGAGTCACCTAGTGCAG | 8370 fluorescence intensity (a.u.)
CAATTCTCGCATGTCTGACCTCCATTCCAGCATTCAAATTCGGAGTCACCTAGTGCAG | 8660 fluorescence intensity (a.u.)
TTGACTAGCTAGTCAGATTCTTCTTCGCTATTGCTGTCCTCGGAGTCACCTAGTGCAG | 8500 fluorescence intensity (a.u.)
GGTTAGGGTTTATGGGGTGGAGTGGCGGCGGCGGCGACGACGGAGTCACCTAGTGCAG | 13400 fluorescence intensity (a.u.)
ACATGTAACAGGACTAGACCATCTTGTTCATTTCCCGCACCGGAGTCACCTAGTGCAG | 8190 fluorescence intensity (a.u.)
TTACCATCTATATACCTACGTCTTATCTGTATCAACTTTTCGGAGTCACCTAGTGCAG | 12600 fluorescence intensity (a.u.)
TTTATTTCCTAGATTAATTCTGATATGTTTCTATGTTTTACGGAGTCACCTAGTGCAG | 9260 fluorescence intensity (a.u.)
TTCTTTTTTTCTTTTTTTTACAATTTGTGATTCAGCGAGACGGAGTCACCTAGTGCAG | 8360 fluorescence intensity (a.u.)
CTCCTCCTCCTCCTCCACCGCCGCCGCCGACGCCGCACTCCGGAGTCACCTAGTGCAG | 8250 fluorescence intensity (a.u.)
CAAAGCAACCTTGGAGTAATCTCCATTTCCATGTCCTATTCGGAGTCACCTAGTGCAG | 8220 fluorescence intensity (a.u.)
GGTGGCTCATCACATCCACACAAGTTATCTACCTGTTCACCGGAGTCACCTAGTGCAG | 12000 fluorescence intensity (a.u.)

Sequence | binding signal
GCCGCCAGCCAAGCCAGCTCCTGCGCCTTTGTTCCCATGCCGGAGTCACCTAGTGCAG | 8640 fluorescence intensity (a.u.)
ACTTTTCCATCACATCGTTCCAATTTCAACCAAACTTCCACGGAGTCACCTAGTGCAG | 9720 fluorescence intensity (a.u.)
TATCCATGCATGATAAGTCATAACTATAGTATTGACTTCTCGGAGTCACCTAGTGCAG | 14400 fluorescence intensity (a.u.)
TCTCTACTCCCATTGTTAACACACAGCATGTCAAAATCTACGGAGTCACCTAGTGCAG | 8380 fluorescence intensity (a.u.)
GGCCAGAATCCAGATACCATGCATGTCCTTTTTCCGATCGCGGAGTCACCTAGTGCAG | 8350 fluorescence intensity (a.u.)
TCTTCCAACCGGCCAACGCGTCAACCCTAGCGATCATCCACGGAGTCACCTAGTGCAG | 8970 fluorescence intensity (a.u.)
CATATATATTGTGATGGTTGATAGCATATGGCTTATCTCACGGAGTCACCTAGTGCAG | 9990 fluorescence intensity (a.u.)
GACCGCTTCCACCACCGCCTCTCCTCTTCTCTTCTCCACTCGGAGTCACCTAGTGCAG | 12100 fluorescence intensity (a.u.)
ATGGTTTGACGCAGCCCCGTCCTGTTGACTCACCTGACCGCGGAGTCACCTAGTGCAG | 12600 fluorescence intensity (a.u.)
CTTGGATTCTGAGGTGGGCTTGAACTTGATATGAATTAGGCGGAGTCACCTAGTGCAG | 8100 fluorescence intensity (a.u.)
TTCTTTCTTTTTTTGCGGGGCTGAATCATATCTATTCATTCGGAGTCACCTAGTGCAG | 10800 fluorescence intensity (a.u.)
AGGGTGGGATGGGCGCTTAGAGACATATTTTAGCATGAATCGGAGTCACCTAGTGCAG | 12000 fluorescence intensity (a.u.)
CATTTGCCATATCGGCTCAATCAAACTCTGACTTTGTTTCCGGAGTCACCTAGTGCAG | 8380 fluorescence intensity (a.u.)
TCGTCGCCAACTCGTTCCGCCGCATCCCCGACAGGTCGACCGGAGTCACCTAGTGCAG | 8990 fluorescence intensity (a.u.)
ACCATATGCATCTGAATTTGTTCTGAGTATACTCCATTTCCGGAGTCACCTAGTGCAG | 10600 fluorescence intensity (a.u.)
AAACTTTGCGCAAGCATGTATGGATCGTTCATTCGTTTTACGGAGTCACCTAGTGCAG | 8160 fluorescence intensity (a.u.)
GGGGATTTTCATTTTTTGTTTTGTTTTGAAGCTTTCGCTACGGAGTCACCTAGTGCAG | 14700 fluorescence intensity (a.u.)
GACTTCTATTCTTGGTTCAGCACACTCCTCCATAGAAGCACGGAGTCACCTAGTGCAG | 8760 fluorescence intensity (a.u.)
GTTGGTCTTTCATCATTTTCCACGTACAACCGCATGACGCCGGAGTCACCTAGTGCAG | 10300 fluorescence intensity (a.u.)
ATAATTAGATCTTTGGTTCTGTCGTTATTCAGTTTTTTCACGGAGTCACCTAGTGCAG | 8610 fluorescence intensity (a.u.)
GCCCATTTAACTCCCAAAGCCCGCAACTAAAATCACGGCCCGGAGTCACCTAGTGCAG | 8570 fluorescence intensity (a.u.)

Sequence | binding signal
AGAGCTTGTGTGGTGGTGGGGCATCAGTGTGTCAGTTGTGCGGAGTCACCTAGTGCAG | 17100 fluorescence intensity (a.u.)
AACTGGATTTTTCCCGCCGGTTATTCGAATCGGGAACGCTCGGAGTCACCTAGTGCAG | 9640 fluorescence intensity (a.u.)
CTCAGTAATCACTTCGCACATTAACTCTCTCTCTCTTTCTCGGAGTCACCTAGTGCAG | 8910 fluorescence intensity (a.u.)
GTCGTGCCTATCTATCAGCAGCCTTGCCTGCGTGTATCGCCGGAGTCACCTAGTGCAG | 8770 fluorescence intensity (a.u.)
TTCTTTGGATTTGATTGGTGCCGCCTTTTTTCGCTATTGACGGAGTCACCTAGTGCAG | 15600 fluorescence intensity (a.u.)
TAGTTTGCCTCCAAATACTTCCCGCCAAACTCAATTTTCCCGGAGTCACCTAGTGCAG | 8740 fluorescence intensity (a.u.)
TCTGTTACTACTTTCTCTCCCATCCATTATTATTTCATTTCGGAGTCACCTAGTGCAG | 9760 fluorescence intensity (a.u.)
ATATCCACTGCTGTTTCTTTTACGCGTGTTAGTATTCTGACGGAGTCACCTAGTGCAG | 14500 fluorescence intensity (a.u.)
TGGCGCCGGCTTCCGCCGCATCATCGCTCACCGTTGAGCACGGAGTCACCTAGTGCAG | 8060 fluorescence intensity (a.u.)
CTACTGACAAGTTTGTAGTTGTTTCTGCGTTTTTTATTCTCGGAGTCACCTAGTGCAG | 12300 fluorescence intensity (a.u.)
GCGTCGTCCTCGACTCCTCCGCCACCCGCCTGCTCCATCTCGGAGTCACCTAGTGCAG | 8140 fluorescence intensity (a.u.)
ACCACGCCTTGTTGCTATACCAAACCACGAACAAATTAAACGGAGTCACCTAGTGCAG | 8500 fluorescence intensity (a.u.)
AAAAGAAACGCGTTGACCCTACAGATTATTATCCAGCTAGCGGAGTCACCTAGTGCAG | 10100 fluorescence intensity (a.u.)
AGGGTGTTTCTCCTGTGGTATTTTTGTTCCGTTGAAAACGCGGAGTCACCTAGTGCAG | 10700 fluorescence intensity (a.u.)
GGTGGTTGGGTACTTGGGTTGGGTTTGGGTTTTTAGGTTTCGGAGTCACCTAGTGCAG | 29100 fluorescence intensity (a.u.)
CATCAGTTCACAAGCTGCCCTATGGATATGATCCTTTGTTCGGAGTCACCTAGTGCAG | 8280 fluorescence intensity (a.u.)
GGTGTTGGAATCTCTCTCTTAAGGTCGTGTATATTTCTATCGGAGTCACCTAGTGCAG | 11000 fluorescence intensity (a.u.)
TTGACTGGGTTTTTCTTTTTTTTTTCTGTTTTGTTGTTTGCGGAGTCACCTAGTGCAG | 10100 fluorescence intensity (a.u.)
ACTGACCGACCCCGCCATTTTCGTCGCCGTCCGTTCCCCTCGGAGTCACCTAGTGCAG | 10600 fluorescence intensity (a.u.)
GTTCCTTCGCGCAGATCGCCGCCGCGTCTCATACTCTTCGCGGAGTCACCTAGTGCAG | 9590 fluorescence intensity (a.u.)
GTATGTGTGTCAGTCAAATCAAAATTTGGTCATTAATTTACGGAGTCACCTAGTGCAG | 8210 fluorescence intensity (a.u.)

Retrieved one by one from above (4):
Sequence | binding signal
GTAAGACCTCACATAACACATGATTTTTCACAACCAATTTCGGAGTCACCTAGTGCAG | 8620 fluorescence intensity (a.u.)
CGCGACTGCTCCCGGCCTCATCCTCAATTTCACCTCGTGTCGGAGTCACCTAGTGCAG | 10200 fluorescence intensity (a.u.)
TCGTCGCCAACTCGTTCCGCCGCATCCCCGACAGGTCGACCGGAGTCACCTAGTGCAG | 8990 fluorescence intensity (a.u.)
CCCCTTTCGCACTCGCACTCGCACTCGCACTACACCCACCCGGAGTCACCTAGTGCAG | 8370 fluorescence intensity (a.u.)
